Consider 5 molecules from PMC3487762.

For test [1], the target named is T1, Poz1 in pGBKT7 (bait) (S. pombe) (UniProt O13852).
T1 sequence: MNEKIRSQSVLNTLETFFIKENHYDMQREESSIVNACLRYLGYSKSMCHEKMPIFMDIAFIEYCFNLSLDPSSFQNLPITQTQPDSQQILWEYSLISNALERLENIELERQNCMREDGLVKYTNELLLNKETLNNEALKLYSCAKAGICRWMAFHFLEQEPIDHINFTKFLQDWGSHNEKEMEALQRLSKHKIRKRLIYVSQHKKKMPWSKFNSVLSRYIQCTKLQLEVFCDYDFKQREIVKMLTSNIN
Kind of test: two-hybrid; Rap1 fragments in pACT2 (prey), entire ORF of poz1+ or taz1+ in pGBKT7 (bait); S. cerevisiae Y190; ß-galactosidase activity.

In test [2] the target is T2, GST-Rap1 #4 (360–520 a.a.) (S. pombe) (UniProt Q96TL7).
T2 sequence: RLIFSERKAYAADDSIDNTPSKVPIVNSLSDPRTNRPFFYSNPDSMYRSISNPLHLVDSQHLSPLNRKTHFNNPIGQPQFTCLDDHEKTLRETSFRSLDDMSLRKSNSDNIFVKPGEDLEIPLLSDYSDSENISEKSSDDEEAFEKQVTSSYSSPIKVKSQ
Kind of test: pull-down; GST-Rap1 proteins (~1 µg) bound to glutathione beads mixed with S. pombe cell extracts; washed with TNE buffer (40 mM Tris-HCl pH 7.5, 150 mM NaCl, 5 mM EDTA, 50 mM NaF, 20 mM ß-glycerophosphate); SDS-PAGE and western blotting with anti-Myc, anti-FLAG, anti-HA; only the target purified.

In test [3] the target is T3, Bqt1-Bqt2 complex (Gal4-BD-Bqt1 and Bqt2 from pBridge-bqt1+/bqt2+) (S. pombe) (UniProt Q92358+Q9US52).
T3 sequence 1: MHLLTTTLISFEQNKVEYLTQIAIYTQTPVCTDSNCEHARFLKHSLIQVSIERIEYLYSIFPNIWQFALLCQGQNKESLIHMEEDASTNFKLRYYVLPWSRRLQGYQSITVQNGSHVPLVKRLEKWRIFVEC
T3 sequence 2: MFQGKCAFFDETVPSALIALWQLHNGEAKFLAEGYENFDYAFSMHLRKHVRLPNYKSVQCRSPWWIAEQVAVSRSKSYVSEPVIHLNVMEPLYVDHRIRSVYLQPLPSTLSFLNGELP
Briefly: yeast three-hybrid; Rap1 fragments in pACT2 (prey), pBridge-bqt1+/bqt2+ expressing Gal4-BD-Bqt1 and Bqt2 (bait); S. cerevisiae Y190; ß-galactosidase activity.

Test [4] concerns the target T4, GST-Rap1 #5 (501–693 a.a.) (S. pombe) (UniProt Q96TL7).
T4 sequence: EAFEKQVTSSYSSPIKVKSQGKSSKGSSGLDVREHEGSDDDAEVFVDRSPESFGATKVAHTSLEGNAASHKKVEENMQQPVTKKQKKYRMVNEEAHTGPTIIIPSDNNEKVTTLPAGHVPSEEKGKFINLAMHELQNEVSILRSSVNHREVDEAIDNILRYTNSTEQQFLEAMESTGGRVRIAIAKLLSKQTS
Kind of test: pull-down; GST-Rap1 proteins (~1 µg) bound to glutathione beads mixed with S. pombe cell extracts; washed with TNE buffer (40 mM Tris-HCl pH 7.5, 150 mM NaCl, 5 mM EDTA, 50 mM NaF, 20 mM ß-glycerophosphate); SDS-PAGE and western blotting with anti-Myc, anti-FLAG, anti-HA; only the target purified.

In test [5] the target is T5, Taz1 in pGBKT7 (bait) (S. pombe) (UniProt P79005).
T5 sequence: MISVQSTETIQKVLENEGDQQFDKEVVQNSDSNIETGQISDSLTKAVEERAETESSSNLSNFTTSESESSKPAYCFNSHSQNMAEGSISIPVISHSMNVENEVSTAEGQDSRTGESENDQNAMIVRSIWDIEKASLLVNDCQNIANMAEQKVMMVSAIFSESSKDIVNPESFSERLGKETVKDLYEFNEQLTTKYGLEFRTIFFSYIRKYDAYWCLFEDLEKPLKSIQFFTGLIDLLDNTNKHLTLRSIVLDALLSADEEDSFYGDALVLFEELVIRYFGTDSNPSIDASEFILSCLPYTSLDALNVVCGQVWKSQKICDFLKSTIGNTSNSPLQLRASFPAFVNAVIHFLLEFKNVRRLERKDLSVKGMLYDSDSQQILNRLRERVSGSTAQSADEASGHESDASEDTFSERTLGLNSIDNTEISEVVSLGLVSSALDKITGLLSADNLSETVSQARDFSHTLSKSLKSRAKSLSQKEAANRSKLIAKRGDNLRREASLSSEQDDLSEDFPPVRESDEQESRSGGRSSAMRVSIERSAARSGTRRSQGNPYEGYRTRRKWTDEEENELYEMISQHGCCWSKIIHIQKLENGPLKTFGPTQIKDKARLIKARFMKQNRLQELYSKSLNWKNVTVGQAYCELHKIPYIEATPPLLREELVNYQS
Briefly: two-hybrid; Rap1 fragments in pACT2 (prey), entire ORF of poz1+ or taz1+ in pGBKT7 (bait); S. cerevisiae Y190; ß-galactosidase activity.

Results are given in words; binding and its absence hold for the method and conditions named. For some assays here: Binding seen in cells or lysates may run through a third protein. Some results given as binding are weak or reduced against the parent protein; the word gives no strength. For some assays here: Where a sequence is shown, tags or fusion partners need not be part of it.

B1: Rap1 457–512 a.a. in pACT2 (prey) (domain or fragment, UniProt Q96TL7 457-512)
chain: LDDMSLRKSNSDNIFVKPGEDLEIPLLSDYSDSENISEKSSDDEEAFEKQVTSSYS
As to B1, in test [1], the binding entry is on record as “binds”.

B2: Poz1-Flag (protein, UniProt O13852 1-249)
chain: T1 sequence
B2: in test [2], the binding entry is “binds”.

B3: Rap1 311–370 a.a. in pACT2 (prey) (domain or fragment, UniProt Q96TL7 311-370)
chain: VDPAILSDRETSAMLDETSDNEVADIDDQMIERKYLFSASEPNTVKSTNRLIFSERKAYA
B3: the binding entry in test [3] was “binds”.

B4: Taz1-HA (protein, UniProt P79005 1-663)
chain: T5 sequence
As for B4, the binding entry in test [4] was “binds”.

B5: Rap1 RCT domain (639–693 a.a.) in pACT2 (prey) (domain or fragment, UniProt Q96TL7 639-693)
chain: VSILRSSVNHREVDEAIDNILRYTNSTEQQFLEAMESTGGRVRIAIAKLLSKQTS
Take B5: the binding result in test [5] is “binds”.
